# Measured values from the supplement of paper PMC4862054.
# Most values lie at the level of the controls, where differences are scatter.
# What was measured:
# Assay in all cases: normalised response (% of control), CellTox Green; higher = less cell death (100 = DMSO, 0 = benzethonium chloride kill control)
# Settings in all cases: incubation time: 72 h
# CAL-51 [1] = test system: CAL-51
# Protocol: (§1)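 DSRT, 72 h incubation, CellTox Green / CellTiter-Glo readout. Signal is normalised to DMSO and benzethonium chloride controls. Value is the normalised response at dose 2.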
# Hs578T [2] = test system: Hs578T
# Protocol: as §1
# MDA-MB-231 [3] = test system: MDA-MB-231
# Protocol: as §1
# BT-549 [4] = test system: BT-549
# Protocol: as §1
# MCF-10A [5] = test system: MCF-10A
# Protocol: as §1
# CAL-85-1 [6] = test system: CAL-85-1
# Protocol: as §1
# HCC1937 = test system: HCC1937
# Protocol: as §1
# CAL-148 [7] = test system: CAL-148
# Protocol: as §1
# BT-474 [8] = test system: BT-474
# Protocol: as §1
# MFM-223 [9] = test system: MFM-223
# Protocol: as §1
# MDA-MB-453 [10] = test system: MDA-MB-453
# Protocol: as §1
# DU-4475 [11] = test system: DU-4475
# Protocol: as §1
# CAL-120 [12] = test system: CAL-120
# Protocol: as §1
# HDQ-P1 = test system: HDQ-P1
# Protocol: as §1
# HCC1599 [13] = test system: HCC1599
# Protocol: as §1
# MDA-MB-436 [14] = test system: MDA-MB-436
# Protocol: as §1
# HCC1143 [15] = test system: HCC1143
# Protocol: as §1
# CAL-51 [16] = test system: CAL-51; remark: listed apart in the source
# Protocol: (§2)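 DSRT, 72 h incubation, CellTox Green / CellTiter-Glo readout. Signal is normalised to DMSO and benzethonium chloride controls. Value is the normalised response at the lowest tested concentration.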
# Hs578T [17] = test system: Hs578T; remark: listed apart in the source
# Protocol: as §2
# MDA-MB-231 [18] = test system: MDA-MB-231; remark: listed apart in the source
# Protocol: as §2
# BT-549 [19] = test system: BT-549; remark: listed apart in the source
# Protocol: as §2
# MCF-10A [20] = test system: MCF-10A; remark: listed apart in the source
# Protocol: as §2
# CAL-85-1 [21] = test system: CAL-85-1; remark: listed apart in the source
# Protocol: as §2
# CAL-148 [22] = test system: CAL-148; remark: listed apart in the source
# Protocol: as §2
# BT-474 [23] = test system: BT-474; remark: listed apart in the source
# Protocol: as §2
# MFM-223 [24] = test system: MFM-223; remark: listed apart in the source
# Protocol: as §2
# MDA-MB-453 [25] = test system: MDA-MB-453; remark: listed apart in the source
# Protocol: as §2
# DU-4475 [26] = test system: DU-4475; remark: listed apart in the source
# Protocol: as §2
# CAL-120 [27] = test system: CAL-120; remark: listed apart in the source
# Protocol: as §2
# HCC1599 [28] = test system: HCC1599; remark: listed apart in the source
# Protocol: as §2
# MDA-MB-468 = test system: MDA-MB-468
# Protocol: as §2
# MDA-MB-436 [29] = test system: MDA-MB-436; remark: listed apart in the source
# Protocol: as §2
# HCC1143 [30] = test system: HCC1143; remark: listed apart in the source
# Protocol: as §2
Compound,normalised response (CAL-51 [1]) [%],normalised response (Hs578T [2]) [%],normalised response (MDA-MB-231 [3]) [%],normalised response (BT-549 [4]) [%],normalised response (MCF-10A [5]) [%],normalised response (CAL-85-1 [6]) [%],normalised response (HCC1937) [%],normalised response (CAL-148 [7]) [%],normalised response (BT-474 [8]) [%],normalised response (MFM-223 [9]) [%],normalised response (MDA-MB-453 [10]) [%],normalised response (DU-4475 [11]) [%],normalised response (CAL-120 [12]) [%],normalised response (HDQ-P1) [%],normalised response (HCC1599 [13]) [%],normalised response (MDA-MB-436 [14]) [%],normalised response (HCC1143 [15]) [%],normalised response (CAL-51 [16]) [%],normalised response (Hs578T [17]) [%],normalised response (MDA-MB-231 [18]) [%],normalised response (BT-549 [19]) [%],normalised response (MCF-10A [20]) [%],normalised response (CAL-85-1 [21]) [%],normalised response (CAL-148 [22]) [%],normalised response (BT-474 [23]) [%],normalised response (MFM-223 [24]) [%],normalised response (MDA-MB-453 [25]) [%],normalised response (DU-4475 [26]) [%],normalised response (CAL-120 [27]) [%],normalised response (HCC1599 [28]) [%],normalised response (MDA-MB-468) [%],normalised response (MDA-MB-436 [29]) [%],normalised response (HCC1143 [30]) [%]
C[C@]12CC[C@H](O)CC1=CC[C@@H]1[C@@H]2CC[C@]2(C)C(c3cccnc3)=CC[C@@H]12 [Abiraterone] (5 nM),109,99.8,110,109,110,95.7,103,105,101,81.9,106,112,106,125,123,110,127,–,–,–,–,–,–,–,–,–,–,–,–,–,–,–,–
CCOC(=O)CCNc1cc(N2CCc3ccccc3CC2)nc(-c2ccccn2)n1 [GSK-J4] (100 nM),106,125,107,95.9,79,100,95,103,103,99.7,–,93.7,101,117,99.9,87.4,110,–,–,–,–,–,–,–,–,–,–,–,–,–,–,–,–
N#CC[C@H](C1CCCC1)n1cc(-c2ncnc3[nH]ccc23)cn1 [Ruxolitinib] (10 nM),100,–,106,83.1,98.7,96.6,66.5,97.9,87.2,86,98.1,97.4,99.6,86,96.7,90.4,109,–,–,–,–,–,–,–,–,–,–,–,–,–,–,–,–
CC1(C)NC(=O)N(c2ccc([N+](=O)[O-])c(C(F)(F)F)c2)C1=O [Nilutamide] (10 nM),116,110,112,90.7,103,96.3,103,105,100,74.5,103,106,104,91.7,113,110,114,–,–,–,–,–,–,–,–,–,–,–,–,–,–,–,–
COc1cc([C@@H]2c3cc4c(cc3[C@@H](O[C@@H]3O[C@@H]5CO[C@@H](c6cccs6)O[C@H]5[C@H](O)[C@H]3O)[C@H]3COC(=O)[C@H]23)OCO4)cc(OC)c1O [Teniposide] (1 nM),–,–,–,–,–,–,–,–,–,–,–,–,–,–,–,–,–,105,69.9,117,96.4,97.8,101,95.3,99.9,106,93.8,105,102,111,78.9,94.8,83.7
CC[C@H](CC#N)OC(=O)N[C@@H](C)c1cccc(NC(=O)Nc2ccc(-c3cnco3)c(OC)c2)c1 [AVN944] (10 nM),104,65,101,99.5,108,95,109,–,102,81.7,97.7,95.6,99.7,–,99.3,104,76.3,–,–,–,–,–,–,–,–,–,–,–,–,–,–,–,–
CNC(=O)c1ccc(N2C(=S)N(c3ccc(C#N)c(C(F)(F)F)c3)C(=O)C23CCC3)cc1F [RD162] (10 nM),103,127,111,102,80.3,107,107,102,102,93.4,90.1,100,102,110,104,103,112,–,–,–,–,–,–,–,–,–,–,–,–,–,–,–,–
